# Source: US6139862A, “Pharmaceutical dipeptide compositions and methods of use thereof” (priority 1998, dated 2000)
# At least one peptide structure holds a part that was inferred or is arguable (an end, a ring closure or a residue).
# Tests used:
# [1] = test system: Immunosupressed individuals who have sustained radiation injuries; assay: Treatment of immunosuppressed individuals with radiation injuries; type: in vivo, human
# [2] = test system: Patients with psoriasis; assay: Treatment of psoriasis; type: in vivo, human; conditions: 100 μg IM or intranasally for 10 days
# [3] = test system: herpetic lesions; assay: Treatment of herpetic lesions; type: in vivo, human
# [4] = test system: Patients with Herpes Zoster; assay: Treatment of Herpes Zoster; type: in vivo, human; conditions: in combination with conventional interferon treatment; single daily IM or intranasal 100 μg for 10 days; controls interferon alone
# [5] = test system: Patients with periapical granulomas; assay: Treatment of periapical granulomas; type: in vivo, human; conditions: 100 μg into the foramen at the base of the tooth or in the filling paste during 3 days
# [6] = test system: affect sinuses; assay: Treatment of affected sinuses; type: in vivo, human; conditions: IM, intranasally, and installation into sinuses, 1 μg/kg for 3-10 days
# [7] = test system: Patients with various eye problems; assay: Treatment of eye problems; type: in vivo, human; conditions: intra ocularly 18 μg for 5 consecutive days or conjunctival drops bid for 5 days, in addition to conventional treatment
# [8] = test system: symptom complexes including joint pain, muscle aches, fevers, chills, and upper respiratory symptoms; assay: Treatment of symptom complexes (joint pain, muscle aches, fevers, chills, upper respiratory symptoms); type: in vivo, human; conditions: IM or intranasally 100 μg 5-10 days
# [9] = test system: bone-marrow compromise, such as, that caused from transplant or radiation exposure; assay: Treatment in bone-marrow compromise; type: in vivo; conditions: IM or intranasally
# [10] = test system: Patients exposed to massive hemotransfusions during post-operative period; assay: Treatment after massive hemotransfusions; type: in vivo, human; conditions: from 4-6 day of post-operative period, single daily IM or intranasally 100 μg for 5 days
# [11] = test system: patients treated with antibiotics who have unfavorable allergological history; assay: Prevention of allergic reactions to antibiotics; type: in vivo, human; conditions: IM or intranasally single daily 100 μg for 5-10 days
# [12] = test system: antibiotic-resistant staphylococci; assay: Chronic skin diseases caused by antibiotic-resistant staphylococci; type: in vivo, human; conditions: IM or intranasally single daily 100 μg for 5 days; patients with signs of secondary T-immunodeficiency
# [13] = test system: patients with wounds of various origin, type and localization; assay: Treatment of wounds; type: in vivo, human; conditions: IM or topically single daily 100 ug for 10 days; vs control group
# [14] = test system: wound healing; assay: Wound healing (Example 25); type: in vivo; conditions: intranasally or IM
# [15] = test system: patients with bone fractures of various origin, type and localization; assay: Treatment of bone fractures; type: in vivo, human; conditions: intramuscularly or intranasally single daily at 100 up for 10 days; vs control group
# [16] = test system: Patients with cutaneous burns; assay: Treatment of cutaneous burns; type: in vivo, human; conditions: IM or intranasally
# [17] = test system: Patients with frostbite to the extremities; assay: Treatment of frostbite; type: in vivo, human; conditions: IM or intranasally
# [18] = test system: Patients during the administration of chemotherapy; assay: Treatment during chemotherapy; type: in vivo, human; conditions: simultaneously during chemotherapy
# [19] = test system: pregnant women with Toxemia of first and second half of pregnancy; assay: Treatment of Toxemia of pregnancy; type: in vivo, human; conditions: IM and intranasally 100 ug daily for 5-10 days
# [20] = test system: Patients with leprosy (Hansen's disease); assay: Treatment of leprosy; type: in vivo, human; conditions: IM or intranasally single daily 100 ug for 5 days in addition to conventional therapy
# [21] = test system: Patients who have relapsing forms of tropical malaria; assay: Treatment of tropical malaria; type: in vivo, human; conditions: 100 ug single daily IM or intranasally for 5-10 days
structure (smiles),measurement,setting,value
"CC[C@H](C)[C@H](N)C(=O)N[C@@H](Cc1c[nH]c2ccccc12)C(=O)O [Ile-Trp, L-Ile-L-Trp]",restoration of immunological indices,[1],excellent restoration of immunological indices
same,clinical outcome in psoriasis,[2],"improvement in most of the patients, and total recovery in some of the patients"
same,lesion outbreaks,[3]; in combination with interferon,lessening of lesion outbreaks
same,recurrence of herpetic lesions,"[3]; topically, IM, or intranasally",marked reduction of recurrence of herpetic lesions
same,regression of foci of herpetic infection,[4],accelerated regression of foci of herpetic infection
same,"inflammatory process, pain, stability of underlying dental structures (x-ray studies)",[5],"accelerated arrestation of the inflammatory process, reduction in pain, and increases stability of the underlying dental structures"
same,"nasal breathing, nasal mucous swelling, sinus exudates, general condition and immune status",[6],"normalization of nasal breathing, the disappearance of nasal mucous swelling, the arresting of exudates from affect sinuses, and improved general condition and immune status"
same,"inflammatory process, visual acuity, duration of treatment",[7],"more rapid arresting of the inflammatory process and the increase in visual acuity, and the decrease of duration of treatment"
same,symptom complexes,[8],accelerated reduction in symptom complexes
same,"immune parameters, post-operative complications and infections",[9],"improved immune parameters, functional activity of lymphocytes and neutrophils, and reduction of post-operative complications and infections"
same,clinical manifestation of allogeneic blood rejection,[10],do not show clinical manifestation of allogeneic blood rejection
same,allergic reactions under antibiotics,[11],prevents the arising of allergic reactions or promotes the less severe course in most cases
same,staphylococci antibiotic-sensitivity,[12],"antibiotic-sensitivity to one, few or all antibiotics is increased"
same,"wound healing, therapy duration, infectious complications",[13],"speeds up (when compared to the control group) significantly wound healing, reduces therapy duration and prevents the development of infectious complications"
same,"wound healing, infections, escar",[14],"accelerates wound healing, resulting in statistically fewer infections and reduced escar"
same,"consolidation of fractures, infectious complications, pain syndrome, treatment duration",[15],"accelerates essentially (in comparison with the control group) the consolidation of fractures, prevents the development of infectious complications, reduces pain syndrome and treatment duration"
same,"wound healing, frequency of infections, escar",[16],"Accelerated wound healing, diminished frequency of infections, and less escar"
same,healing and tissue integrity,[17],Rapid healing and restoration of tissue integrity
same,complications and side effects related to chemotherapy,[18],fewer complications and side effects related to chemotherapy
same,"BP, peripheral edema, blood chemistry profile, immunologic indices",[19],"BP normalized, and peripheral edema is reduced with normalization of the blood chemistry profile, and the restoration of initially altered immunologic indices"
same,"lesions, relapses, healing of specific ulcers",[20],"resolution of the lesions and prevented relapses, and promotes more rapid healing of specific ulcers"
same,"hepatolineal syndrome, hematological and immunological indices, fever, relapses",[21],"reduction of hepatolineal syndrome, the normalization of hematological and immunological indices, reduction of fever, and prevention of relapses"
